This passage reports binding results from paper doi:10.1101/2024.02.15.580497.

The chains behind the UniProt entries cited, without tags or fusion partners. Residues count along the entry.
UniProt Q14191, residues 910-1250: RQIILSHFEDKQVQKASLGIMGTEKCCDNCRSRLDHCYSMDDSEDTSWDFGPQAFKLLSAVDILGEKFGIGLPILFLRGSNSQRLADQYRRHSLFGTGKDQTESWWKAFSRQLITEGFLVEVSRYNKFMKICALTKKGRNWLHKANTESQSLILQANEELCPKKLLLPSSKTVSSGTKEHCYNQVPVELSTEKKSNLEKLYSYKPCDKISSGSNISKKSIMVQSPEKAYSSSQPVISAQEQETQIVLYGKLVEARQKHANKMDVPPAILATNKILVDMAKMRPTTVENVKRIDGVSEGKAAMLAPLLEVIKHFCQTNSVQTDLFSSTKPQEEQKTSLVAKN
UniProt Q9Y3Z3: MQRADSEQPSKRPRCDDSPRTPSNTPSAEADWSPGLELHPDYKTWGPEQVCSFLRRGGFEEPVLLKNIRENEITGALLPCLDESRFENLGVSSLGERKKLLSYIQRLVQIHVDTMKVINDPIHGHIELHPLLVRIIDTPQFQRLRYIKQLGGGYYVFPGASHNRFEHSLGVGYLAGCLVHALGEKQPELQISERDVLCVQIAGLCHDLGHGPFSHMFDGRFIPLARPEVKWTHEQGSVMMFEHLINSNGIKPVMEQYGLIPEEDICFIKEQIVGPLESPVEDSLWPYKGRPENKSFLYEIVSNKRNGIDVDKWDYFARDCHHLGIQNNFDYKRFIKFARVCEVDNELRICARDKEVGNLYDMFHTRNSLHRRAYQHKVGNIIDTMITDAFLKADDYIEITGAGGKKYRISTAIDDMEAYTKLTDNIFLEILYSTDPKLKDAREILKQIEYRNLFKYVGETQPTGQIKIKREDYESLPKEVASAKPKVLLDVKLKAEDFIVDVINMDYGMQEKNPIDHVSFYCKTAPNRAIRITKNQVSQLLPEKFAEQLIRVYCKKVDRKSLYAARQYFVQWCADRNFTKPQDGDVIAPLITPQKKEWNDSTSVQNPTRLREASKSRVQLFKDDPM

Results are given in words; binding and its absence hold for the method and conditions named. In cells and extracts the contact can be indirect. Some results given as binding are weak or reduced against the parent protein; the word gives no strength.

For this assay, the target named is GST-C-terminal WRN fragment (amino acids 910 to 1250) (human) (UniProt Q14191). Briefly: pull-down.

SAMHD1 (from UniProt Q9Y3Z3 1-626): the binding result was “binds”.
